# Measured values published in PubChem BioAssay (EPA / NIEHS).
# The chains behind the UniProt entries cited, without tags or fusion partners.
# UniProt P04637, whole entry, looked up: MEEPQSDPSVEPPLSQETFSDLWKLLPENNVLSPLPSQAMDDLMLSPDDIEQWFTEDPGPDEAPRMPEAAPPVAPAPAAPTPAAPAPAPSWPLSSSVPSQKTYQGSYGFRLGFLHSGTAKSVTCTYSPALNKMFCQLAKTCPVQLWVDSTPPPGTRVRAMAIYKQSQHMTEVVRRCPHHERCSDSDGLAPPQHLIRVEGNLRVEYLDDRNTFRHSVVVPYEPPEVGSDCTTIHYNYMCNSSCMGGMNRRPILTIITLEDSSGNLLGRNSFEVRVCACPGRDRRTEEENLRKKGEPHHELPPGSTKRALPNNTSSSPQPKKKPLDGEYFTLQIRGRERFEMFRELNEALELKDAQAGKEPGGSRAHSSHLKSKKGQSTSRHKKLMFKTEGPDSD
# Several values for one entry are separate records, joined by “and”; a condition that tells them apart may be missing. Equal values may be shown once. The inconclusive results got no clear call from the source; some entries with a clear call stand among them for comparison. A potency beside an inconclusive call is a rough fit, not a confirmed value. More than one record can exist for a structure, and the calls need not agree. Activity calls are given as the source filed them. Rule for the calls: active = hit-call score of the fitted dose curve at least 0.9, where 1 is the maximum; inconclusive = response in the unintended direction; inactive = score below 0.9.
# Tested on: not listed separately
# Assay: TOX21_p53_BLA_p5_viability: Viability Assessment in the Tox21 HCT-116 p53 Agonism Beta-lactamase Assay, Phase 5 (AID 2283600)
# Outline: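 Cells were plated at 4000/well, rested 5 h at 37C, then given compounds in DMSO (217-fold dilution) for 16 h at 37C, 5% CO2. Following the CCF4-AM beta-lactamase read, CellTiter-Glo was added and luminescence was read after 30 min at room temperature.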
Compound,AC50,outcome
COc1ccc(C)cc1N,inconclusive: 502 nM and inconclusive: 44.8 µM,–
CO[Si](CCCOCC1CO1)(OC)OC (stereo not given),inconclusive: 0.0824 µM,–
CCCCCC(C)=O,inconclusive: 1.04 µM and inconclusive: 87.3 µM,–
COc1cc(/C=C/C(=O)CC(=O)/C=C/c2ccc(O)c(OC)c2)ccc1O,active: 80.7 µM and inconclusive: 5.63 µM and active: 22.5 µM,–
C=C1CC[C@H](O)C/C1=C/C=C1\CCC[C@]2(C)[C@@H]([C@H](C)/C=C/[C@H](C)C(C)C)CC[C@@H]12,active: 79.6 µM,–
Cc1c(OCC(F)(F)F)ccnc1CS(=O)c1nc2ccccc2[nH]1 (stereo not given),inconclusive: 35.9 µM,–
C[C@H](CCC(=O)O)[C@H]1CC[C@H]2[C@@H]3CC[C@@H]4C[C@H](O)CC[C@]4(C)[C@H]3CC[C@]12C,active: 16.3 µM and inconclusive: 45.9 µM,–
CC(=O)O[C@]1(C(C)=O)CC[C@H]2[C@@H]3C[C@H](C)C4=CC(=O)CC[C@]4(C)[C@H]3CC[C@@]21C,inconclusive: 46.1 µM and inconclusive: 23 µM,–
O=C1CCC(N2C(=O)c3ccccc3C2=O)C(=O)N1 (stereo not given),inconclusive: 83 µM,–
CC1=CC(=O)c2ccccc2C1=O,active: 37.9 µM,inactive
CC(=O)OC/C=C(C)/C=C/C=C(C)/C=C/C1=C(C)CCCC1(C)C,–,inactive
CC(C)(C)NC(=O)[C@H]1CC[C@H]2[C@@H]3CC[C@H]4NC(=O)C=C[C@]4(C)[C@H]3CC[C@]12C,inconclusive: 0.29 nM and inconclusive: 45.7 µM,inactive
CO[C@H]1/C=C/O[C@@]2(C)Oc3c(C)c(O)c4c(O)c(c(/C=N/N5CCN(C)CC5)c(O)c4c3C2=O)NC(=O)/C(C)=C\C=C\[C@H](C)[C@H](O)[C@@H](C)[C@@H](O)[C@@H](C)[C@H](OC(C)=O)[C@@H]1C,inconclusive: 23 µM,inactive
CN(C)CCCN1c2ccccc2CCc2ccc(Cl)cc21,active: 77.1 µM,–
CC=CC(=O)N(CC)c1ccccc1C,inconclusive: 46.1 µM and inconclusive: 10.3 µM,–
CC(=O)OCCC(C)C,inconclusive: 969 nM and inconclusive: 46.1 µM,–
COc1ccccc1O,inconclusive: 46.6 µM and inconclusive: 23 µM,–
CCCCNC(N)=O,inconclusive: 46.1 µM,inactive
CC(=O)C(=O)O,inconclusive: 46.1 µM,–
CCc1cc(C(C)(C)C)c(O)c(C(C)(C)C)c1,inconclusive: 11.3 µM,–
Cc1cccc(Nc2cc(Cl)nc(SCC(=O)O)n2)c1C,inconclusive: 3.9 µM and inconclusive: 14 µM and inconclusive: 18.2 µM,–
C[C@]12CC[C@H]3[C@@H](CCC4=CC(=O)CC[C@@]43C)[C@@H]1CC[C@@H]2C(=O)CO,inconclusive: 10.3 µM,inactive
CCc1ccc(O)cc1,–,inactive
C=C(C)C(=O)OCCCCCCCCCCCC,inconclusive: 46.1 µM,–
CCCCC/C=C/C=C/C=O,inconclusive: 0.0261 µM,–
CCCCCCC(=O)O,inconclusive: 46.1 µM,–

# Biological target: Cellular tumor antigen p53 (Homo sapiens) (UniProt P04637)
# Assay: TOX21_p53_BLA_p4_ratio: Tox21 HCT-116 p53 Agonism Beta-lactamase Assay, Ratio, Phase 4 (AID 2283601)
# Outline: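 HCT-116 p53 beta-lactamase reporter cells (4000/well) preincubated 5 h, then compound (217-fold dilution of DMSO stock) for 16 h at 37C. CCF4-AM substrate added 2 h at room temperature; 460/530 nm emission ratio fitted upward versus DMSO.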
Compound,AC50,outcome
CO[Si](CCCOCC1CO1)(OC)OC (stereo not given),inconclusive: 46.1 µM,–
COc1cc(/C=C/C(=O)CC(=O)/C=C/c2ccc(O)c(OC)c2)ccc1O,active: 14 µM and active: 36.5 µM and active: 7.12 µM,–
O=C1CCC(N2C(=O)c3ccccc3C2=O)C(=O)N1 (stereo not given),inconclusive: 23 µM,inactive
Brc1ccc(Oc2ccc(Br)cc2)cc1,inconclusive: 46.1 µM,–
NCCNCCN,inconclusive: 46.2 µM,–
Nc1nc(Cl)nc2c1ncn2[C@H]1C[C@H](O)[C@@H](CO)O1,active: 244 nM and active: 886 nM,–
CC(=O)OC/C=C(C)/C=C/C=C(C)/C=C/C1=C(C)CCCC1(C)C,inconclusive: 73.9 µM and inconclusive: 23 µM,–
CC(C)(C)NC(=O)[C@H]1CC[C@H]2[C@@H]3CC[C@H]4NC(=O)C=C[C@]4(C)[C@H]3CC[C@]12C,inconclusive: 18.8 µM and inconclusive: 9.07 µM and inconclusive: 10.3 µM,–
CO[C@H]1/C=C/O[C@@]2(C)Oc3c(C)c(O)c4c(O)c(c(/C=N/N5CCN(C)CC5)c(O)c4c3C2=O)NC(=O)/C(C)=C\C=C\[C@H](C)[C@H](O)[C@@H](C)[C@@H](O)[C@@H](C)[C@H](OC(C)=O)[C@@H]1C,inconclusive: 28.8 µM and inconclusive: 20.3 µM,–
Cc1cccc(Nc2cc(Cl)nc(SCC(=O)O)n2)c1C,inconclusive: 48.1 µM and inconclusive: 18.3 µM,–
C[C@]12CC[C@H]3[C@@H](CCC4=CC(=O)CC[C@@]43C)[C@@H]1CC[C@@H]2C(=O)CO,inconclusive: 10.3 µM,inactive
CCc1ccc(O)cc1,inconclusive: 46.5 µM and inconclusive: 46.3 µM,–
